The values that follow come from PMC13035903.

Amino acid sequences for entries named in this document (tags omitted).
UniProt Q9UKV0: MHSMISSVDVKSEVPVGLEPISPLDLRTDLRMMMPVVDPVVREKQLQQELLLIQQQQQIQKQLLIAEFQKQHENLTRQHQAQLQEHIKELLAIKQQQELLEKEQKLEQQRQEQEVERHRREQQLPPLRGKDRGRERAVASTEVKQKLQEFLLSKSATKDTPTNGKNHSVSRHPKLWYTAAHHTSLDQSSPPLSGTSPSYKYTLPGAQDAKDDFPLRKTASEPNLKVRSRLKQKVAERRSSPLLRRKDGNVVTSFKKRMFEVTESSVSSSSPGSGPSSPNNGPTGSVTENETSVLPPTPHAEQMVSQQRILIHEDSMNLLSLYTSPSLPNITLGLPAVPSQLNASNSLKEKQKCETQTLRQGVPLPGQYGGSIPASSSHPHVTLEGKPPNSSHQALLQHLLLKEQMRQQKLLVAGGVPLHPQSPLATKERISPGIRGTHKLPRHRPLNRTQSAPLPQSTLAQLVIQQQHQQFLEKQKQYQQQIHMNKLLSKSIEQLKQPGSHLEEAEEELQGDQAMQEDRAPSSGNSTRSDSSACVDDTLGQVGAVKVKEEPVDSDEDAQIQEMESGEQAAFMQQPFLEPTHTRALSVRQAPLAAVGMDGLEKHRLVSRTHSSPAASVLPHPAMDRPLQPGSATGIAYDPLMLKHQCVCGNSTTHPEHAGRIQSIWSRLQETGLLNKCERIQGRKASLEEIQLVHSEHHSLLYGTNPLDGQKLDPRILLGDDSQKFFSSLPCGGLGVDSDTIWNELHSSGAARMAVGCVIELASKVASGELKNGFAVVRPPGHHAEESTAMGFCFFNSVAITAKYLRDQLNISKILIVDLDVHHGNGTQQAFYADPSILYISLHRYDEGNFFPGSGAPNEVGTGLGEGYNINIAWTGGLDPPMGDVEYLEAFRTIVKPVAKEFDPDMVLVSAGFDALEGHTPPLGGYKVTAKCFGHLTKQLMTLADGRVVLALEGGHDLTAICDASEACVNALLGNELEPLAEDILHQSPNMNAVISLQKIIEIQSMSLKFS
UniProt P42224: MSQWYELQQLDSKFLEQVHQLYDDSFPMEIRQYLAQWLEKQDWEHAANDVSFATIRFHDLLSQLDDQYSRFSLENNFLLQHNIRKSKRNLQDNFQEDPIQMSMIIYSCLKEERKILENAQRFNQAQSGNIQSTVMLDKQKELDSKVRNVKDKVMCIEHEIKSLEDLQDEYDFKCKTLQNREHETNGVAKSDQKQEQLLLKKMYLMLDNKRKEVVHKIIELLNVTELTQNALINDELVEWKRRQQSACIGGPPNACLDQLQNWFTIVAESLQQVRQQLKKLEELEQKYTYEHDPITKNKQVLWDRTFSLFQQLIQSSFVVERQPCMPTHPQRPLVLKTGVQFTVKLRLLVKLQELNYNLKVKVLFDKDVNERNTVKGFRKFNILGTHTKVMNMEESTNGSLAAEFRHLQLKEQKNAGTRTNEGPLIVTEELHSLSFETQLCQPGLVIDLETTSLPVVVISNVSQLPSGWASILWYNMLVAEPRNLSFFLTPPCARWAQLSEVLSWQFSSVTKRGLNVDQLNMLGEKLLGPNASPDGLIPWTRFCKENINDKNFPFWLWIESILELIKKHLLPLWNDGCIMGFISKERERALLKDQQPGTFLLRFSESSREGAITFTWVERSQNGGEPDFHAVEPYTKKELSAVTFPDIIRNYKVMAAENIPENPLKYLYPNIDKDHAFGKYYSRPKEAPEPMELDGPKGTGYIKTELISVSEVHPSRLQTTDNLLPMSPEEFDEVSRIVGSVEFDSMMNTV

The assay concerns the target T1, lysophosphatidylcholine acyltransferase 2 (human (endogenous in BEAS-2B)) (UniProt Q7L5N7).
T1 sequence: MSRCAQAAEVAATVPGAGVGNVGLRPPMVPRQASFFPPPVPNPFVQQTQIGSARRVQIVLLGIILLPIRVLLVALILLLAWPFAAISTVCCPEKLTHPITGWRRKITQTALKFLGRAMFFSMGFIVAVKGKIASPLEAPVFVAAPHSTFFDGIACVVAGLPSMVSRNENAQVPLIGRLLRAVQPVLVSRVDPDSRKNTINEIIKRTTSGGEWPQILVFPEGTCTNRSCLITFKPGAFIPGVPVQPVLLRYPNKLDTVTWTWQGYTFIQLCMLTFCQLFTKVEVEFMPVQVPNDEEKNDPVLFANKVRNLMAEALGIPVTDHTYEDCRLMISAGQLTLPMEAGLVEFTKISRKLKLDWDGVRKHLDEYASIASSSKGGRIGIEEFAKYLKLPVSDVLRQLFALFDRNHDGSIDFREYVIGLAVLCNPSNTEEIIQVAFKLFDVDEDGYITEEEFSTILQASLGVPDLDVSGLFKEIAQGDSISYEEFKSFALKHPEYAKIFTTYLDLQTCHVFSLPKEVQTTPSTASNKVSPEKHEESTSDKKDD
In words: co-IP; BEAS-2B cells, control and lactate-treated (10 mM, 24 h); lysed in EBC buffer with protease/phosphatase inhibitors, antibody overnight at 4 °C, protein A/G beads, washed thrice with NETN buffer, detected by Western blot. (In western blotting, separated proteins are transferred to a membrane and probed.)

These are yes or no findings as the source states them, for the method shown. Binding seen in cells or lysates may run through a third protein. Some entries that bind do so weakly or less than the wild type.

For “histone deacetylase 9 (from UniProt Q9UKV0 1-1011) (enzyme)”, the binding result is given as “binds”.

Consider “transcription activator 1 (STAT1) (from UniProt P42224 1-750)”, for which the binding entry is “binds”.
